Source: PMC8355244, “A fragment-based approach identifies an allosteric pocket that impacts malate dehydrogenase activity” (Communications Biology, 2021)
Values joined by “and” are separate entries in the source; they are usually repeats but may differ in a detail not shown here. Identical values can stand only once. This continues a long series; more values of the same kind are listed elsewhere.

By UniProt entry, the sequences of proteins in these tests, tags left out.
UniProt Q6VVP7, entry or part of it: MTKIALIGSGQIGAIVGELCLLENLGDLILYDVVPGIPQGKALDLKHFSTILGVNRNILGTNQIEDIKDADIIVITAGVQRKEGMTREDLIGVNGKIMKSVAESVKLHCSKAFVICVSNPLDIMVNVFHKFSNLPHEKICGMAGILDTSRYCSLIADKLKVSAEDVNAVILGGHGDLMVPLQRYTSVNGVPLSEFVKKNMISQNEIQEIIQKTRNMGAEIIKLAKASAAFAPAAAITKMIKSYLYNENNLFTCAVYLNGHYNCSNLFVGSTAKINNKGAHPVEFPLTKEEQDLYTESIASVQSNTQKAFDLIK

Target: T1, PfMDH (Plasmodium falciparum, UniProt Q6VVP7)
T1 construct: The full-length WT PfMDH gene was cloned into pETM-13; made in house; host or cells: E. coli Rosetta 2 (DE3) pLysS
Test: Thermal shift assay (TSA)
Format: binding
Settings: for TSA melting curve raw signal: triplicate columns; for TSA melting curve raw fluorescence signal: three replicate columns
Method: The TSA experiment was conducted in a BioRad CSX 96 (Biorad). Each reaction consisted of 1 mM of compound (100 mM stock in 100% (v/v) DMSO) and 10 μM PfMDH in 100 mM Na–phosphate buffer pH 7.4, 400 mM NaCl, and 10× Sypro Orange (Invitrogen) for a total volume of 100 μl. Control experiments were performed with 1% (v/v) DMSO. Inflection points were determined using BioRad CFX96™ control software. Generally, a temperature increase of over 1 °C is interpreted as a result of the stabilization of the protein-ligand interaction. On the contrary, a negative shift is considered a destabilization caused by the fragment.

Nc1nc(-c2ccccc2)cs1 [4PA, 4-phenylthiazol-2-amine]
TSA melting curve raw signal (Temperature 25.5): 3084.629 and 3314.487 and 3407.398
TSA melting curve raw signal (Temperature 26): 3067.696 and 3295.097 and 3394.92
TSA melting curve raw signal (Temperature 26.5): 3050.763 and 3275.707 and 3382.443
TSA melting curve raw signal (Temperature 27): 3033.83 and 3256.317 and 3369.966
TSA melting curve raw signal (Temperature 27.5): 3016.897 and 3236.927 and 3357.488
TSA melting curve raw signal (Temperature 28): 2999.964 and 3217.537 and 3345.011
TSA melting curve raw signal (Temperature 44.5): 3904.714 and 4261.911
TSA melting curve raw signal (Temperature 45): 3805.067 and 4016.787 and 4379.089
TSA melting curve raw signal (Temperature 45.5): 3910.01 and 4137.366 and 4503.47
TSA melting curve raw signal (Temperature 46): 4020.919 and 4265.686 and 4634.244
TSA melting curve raw signal (Temperature 46.5): 4137.39 and 4400.727 and 4770.478
TSA melting curve raw signal (Temperature 47): 4259.115 and 4542.14 and 4911.453
TSA melting curve raw signal (Temperature 47.5): 4385.668 and 4689.12 and 5056.693
TSA melting curve raw signal (Temperature 48): 4516.278 and 4841.649 and 5206.114
TSA melting curve raw signal (Temperature 48.5): 4651.117 and 4998.262 and 5359.59
TSA melting curve raw signal (Temperature 49): 4790.038 and 5159.489 and 5517.682
TSA melting curve raw signal (Temperature 49.5): 4932.562 and 5323.992 and 5679.587
TSA melting curve raw signal (Temperature 50): 5078.328 and 5491.844 and 5845.263
TSA melting curve raw signal (Temperature 50.5): 5226.894 and 5661.711 and 6014.151
TSA melting curve raw signal (Temperature 51): 5378.539 and 5836.955 and 6187.542
TSA melting curve raw signal (Temperature 51.5): 5534.292 and 6017.955 and 6365.814
TSA melting curve raw signal (Temperature 52): 5694.818 and 6206.067 and 6550.32
TSA melting curve raw signal (Temperature 52.5): 5861.52 and 6401.93 and 6741.574
TSA melting curve raw signal (Temperature 53): 6036.077 and 6606.661 and 6940.612
TSA melting curve raw signal (Temperature 53.5): 6218.806 and 6818.026 and 7146.275
TSA melting curve raw signal (Temperature 54): 6408.713 and 7034.448 and 7357.223
TSA melting curve raw signal (Temperature 54.5): 6604.948 and 7254.373 and 7571.417
TSA melting curve raw signal (Temperature 55): 6804.741 and 7474.762 and 7785.819
TSA melting curve raw signal (Temperature 55.5): 7005.366 and 7692.449 and 7997.483
TSA melting curve raw signal (Temperature 56): 7203.373 and 7904.585 and 8202.991
TSA melting curve raw signal (Temperature 56.5): 7394.744 and 8107.02 and 8397.501
TSA melting curve raw signal (Temperature 57): 7576.136 and 8296.36 and 8577.838
TSA melting curve raw signal (Temperature 57.5): 7744.574 and 8469.737 and 8741.555
TSA melting curve raw signal (Temperature 58): 7895.882 and 8623.488 and 8884.747
TSA melting curve raw signal (Temperature 58.5): 8026.752 and 8754.408 and 9004.782
TSA melting curve raw signal (Temperature 59): 8135.752 and 8861.676 and 9101.535
TSA melting curve raw signal (Temperature 59.5): 8221.132 and 8944.219 and 9173.843
TSA melting curve raw signal (Temperature 60): 8282.224 and 9001.516 and 9221.579
TSA melting curve raw signal (Temperature 60.5): 8318.835 and 9035.369 and 9246.466
TSA melting curve raw signal (Temperature 61): 8332.719 and 9047.448 and 9250.68
TSA melting curve raw signal (Temperature 61.5): 8325.877 and 9039.43 and 9237.655
TSA melting curve raw signal (Temperature 62): 8301.151 and 9013.786 and 9210.954
TSA melting curve raw signal (Temperature 62.5): 8261.725 and 8973.934 and 9173.651
TSA melting curve raw signal (Temperature 63): 8212.877 and 8922.391 and 9128.752
TSA melting curve raw signal (Temperature 63.5): 8157.979 and 8862.823 and 9078.613
TSA melting curve raw signal (Temperature 64): 8100.217 and 8799.277 and 9024.44
TSA melting curve raw signal (Temperature 64.5): 8041.145 and 8734.291 and 8967.605
TSA melting curve raw signal (Temperature 65): 7982.263 and 8669.34 and 8909.092
TSA melting curve raw fluorescence signal (Temperature 65.5): 7923.258 and 8605.873 and 8849.16
TSA melting curve raw fluorescence signal (Temperature 66): 7864.345 and 8544.07 and 8789.228
TSA melting curve raw fluorescence signal (Temperature 66.5): 7804.967 and 8483.017 and 8729.364
TSA melting curve raw fluorescence signal (Temperature 67): 7745.828 and 8422.472 and 8668.939
TSA melting curve raw fluorescence signal (Temperature 67.5): 7686.886 and 8362.835 and 8608.061
TSA melting curve raw fluorescence signal (Temperature 68): 7628.545 and 8303.559 and 8547.163
TSA melting curve raw fluorescence signal (Temperature 68.5): 7571.029 and 8244.637 and 8485.56
TSA melting curve raw fluorescence signal (Temperature 69): 7513.468 and 8186.526 and 8423.17
TSA melting curve raw fluorescence signal (Temperature 69.5): 7455.291 and 8129.127 and 8360.962
TSA melting curve raw fluorescence signal (Temperature 70): 7396.359 and 8070.819 and 8298.955
TSA melting curve raw fluorescence signal (Temperature 70.5): 7336.373 and 8011.926 and 8237.077
TSA melting curve raw fluorescence signal (Temperature 71): 7275.089 and 7952.437 and 8175.595
TSA melting curve raw fluorescence signal (Temperature 71.5): 7214.65 and 7891.958 and 8114.859
TSA melting curve raw fluorescence signal (Temperature 72): 7155.72 and 7830.719 and 8054.631
TSA melting curve raw fluorescence signal (Temperature 72.5): 7098.673 and 7770.868 and 7995.791
TSA melting curve raw fluorescence signal (Temperature 73): 7043.868 and 7712.418 and 7938.252
TSA melting curve raw fluorescence signal (Temperature 90): 5956.718 and 6085.443
TSA melting curve raw fluorescence signal (Temperature 90.5): 5375.784 and 5904.092 and 6029.299
TSA melting curve raw fluorescence signal (Temperature 91): 5328.576 and 5852.6 and 5973.79
TSA melting curve raw fluorescence signal (Temperature 91.5): 5281.219 and 5802.488 and 5919.792
TSA melting curve raw fluorescence signal (Temperature 92): 5234.284 and 5754.1 and 5866.949
TSA melting curve raw fluorescence signal (Temperature 92.5): 5187.516 and 5706.098 and 5814.299
TSA melting curve raw fluorescence signal (Temperature 93): 5140.842 and 5657.232 and 5761.506
TSA melting curve raw fluorescence signal (Temperature 93.5): 5094.281 and 5607.784 and 5708.003
TSA melting curve raw fluorescence signal (Temperature 94): 5048.35 and 5556.207 and 5654.849
TSA melting curve raw fluorescence signal (Temperature 94.5): 5002.206 and 5503.967 and 5600.988
TSA melting curve raw fluorescence signal (Temperature 95): 4957.208 and 5448.062 and 5549.701
